Test system: hyaluronidase Type IV-S, from bovine testes (Hyase)
Assay: Dische's assay (Method II) of HA degradation by Hyase with inhibitors
Type: biochemical
Conditions: 20 μL inhibitor stock incubated 2 h with 20 μL Hyase, then HA 200 μL, room temperature 24 h
Procedure: Method II (Dische's assay; detection of uronic acid residues): Assays were performed by following the procedures described in Dische Z. [J. Biol. Chem., 1947, 167, p. 189-198] and Dische and Rothschild [Anal Biochem., 1967, 21(1), p. 125-30]. In these assays, molecules containing the uronic acid residues found in the precipitate formed upon CPC additions, are re-solubilized and products formed by -sulfuric acid hydrolysis of these fragments are detected by a spectrophotometric assay employing carbazole chromagen reagent. In addition, small residues degraded off the HA chains that have not precipitated with the addition of CPC, can be detected by the carbazole assay performed on the solution, so as to detect all of the uronic acid content.
Evaluation of HA degradation by this method was generally performed as follows:
20 μL of a NAC stock solution, and 20 μL of the stock solutions of the other inhibitors were used in the assay.
200 μL of the HA stock solution were placed in each tube, for achieving a 1 mg HA per tube.
Twenty (20) μL of hyase and 20 μL of NAC were combined and incubated for 2 hours. Then 200 μL of HA (1 mg) were added to each tube and the mixture was incubated at room temperature for 24 hours. Thereafter, the tubes were heated for 2 minutes in boiling water bath and 8 mL of doubled distilled water were added to the tubes as preparation for the Dische's assay.
As per Dische's Assay, 100 μL of 3N NaCl and 0.5 mL of 10% CPC (cetylpyridinium chloride) were thereafter added to each tube and the mixture was incubated at 37° C. until flocculation-turbidity (resulting from precipitation of HA+CPC) could be observed. The mixture was centrifuged for 10 minutes at 10,000 g at room temperature, and the supernatant was thereafter separated from the obtained pellet.
The pellet was dissolved in 1 ml of CaCl2, and the obtained solution was incubated at 37° C. until complete dissolution of the pellet is obtained. […]
The pink-violet color developed by the chromogen was measured using a spectrophotometer at 527 nm. […]

N[C@@H](CCC(=O)N[C@@H](CS)C(=O)NCC(=O)O)C(=O)O [Glutathione, Reduced Glutathione]
Net OD at 527 nm: 0.045

O=C(O)c1cc(=O)c2c(OCC(O)COc3cccc4oc(C(=O)O)cc(=O)c34)cccc2o1 [Cromoglycate, sodium Cromoglycate]
Net OD at 527 nm: 0.001

CC(=O)N[C@@H](CS)C(=O)O [NAC, N-acetyl L-cysteine]
Net OD at 527 nm: 0.321

Source: US10004761B2, “Malodor neutralizing composition” (priority 2016, dated 2018)
